For experiment [1], the target named is protein A-tagged Flfl expressed in Drosophila syncytial embryos (Drosophila melanogaster) (UniProt Q9VFS5). Nature of the experiment: affinity purification with mass spectrometry; protein A-tagged bait from 1 g transgenic Drosophila syncytial embryos, extraction buffer, DNase I, rabbit IgG Dynabeads, LC-MS/MS.
The target of experiment [2] is protein A::Flfl^169–973 (Drosophila melanogaster) (UniProt Q9VFS5). Nature of the experiment: affinity purification with mass spectrometry; protein A-tagged bait from ~10^9 D.Mel-2 cells, lysate in extraction buffer (50 mM HEPES pH 7.5, 0.5% NP-40), DNase I, rabbit IgG Dynabeads 2 h 4 °C, LC-MS/MS, Mascot.
Experiment [3] deals with T1, protein A::Flfl^1–168 (Drosophila melanogaster) (UniProt Q9VFS5).
T1 sequence: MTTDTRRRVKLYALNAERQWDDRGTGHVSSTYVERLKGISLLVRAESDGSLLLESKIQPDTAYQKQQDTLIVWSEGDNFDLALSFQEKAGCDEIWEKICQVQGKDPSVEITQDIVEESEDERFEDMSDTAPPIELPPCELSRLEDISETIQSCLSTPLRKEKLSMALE
The experiment is described as above.

The target of experiment [4] is Protein A::Falafel (Drosophila melanogaster) (UniProt Q9VFS5). The experiment is described as above.

No constants are given. Whether binding was seen depends on the method and setting. Binding seen in cells or lysates may run through a third protein. A yes stands for co-enrichment or nearness to the bait. Other partners may have been found. For some of these results: A no says only that the protein was not detected with the bait.

B1: centromeric protein C (CENP-C), endogenous (protein, UniProt Q9VHP9 1-1411)
chain: MSKPQNNDTLELDDILSQPVKDKERFAAFMMRKLAENKPAQNDNLFGNFKLDFDLDFEVPLIKKSQAKPKSKLPEVQPLGELVSKNSAATEKVNEPPVDQAPNENVPPRRSPTLSPNNRRSMRRSGNVPGSDKLRRHAIRRRSRSCGRQLLPEFEETVNLTRSISSPVNFLPEISSTPCTEKQKEEVAKNTTRVETDKPAEKPMELSQEPEPENPLQTKVTSPARNPILAAEIEQICKERQSSFHKNVLQLDYSGRAPYSRPPTPSSPSVAGLRRTYTMEKGPAPGQLLLSPSHRYDTPSKMPVVKAKRFNQELMVPDTPERQSHDPAWQSEPQPEFVVPETQPQDLGELVQTLSRSAISPIVVINTSNSNRSVRRDAVAMKSVPTSPVTALSSPPIAPSPRRSAAASPQKSIAQLPRVEENMDAIMTDDESDEHPSTVPLNLAPSGGNTTRQRRLRSSNRARATIESQESSMRLLNLHKSVNAKKSKPRKTAIPLNKAPSAPINGEQFARELTRMSNYEILDLRKRNSLNEIYPLNGHRNHRSEKLILEEEIQRELLRRNLMDEAEGLPKQQSSDDSNEDYIPVPPKTQSLRTKSNDRSQGRGRPRSTRRDLPMTTELVNYLGLSQTLETRRKSSKDGKRCLYTKGSSDHEDNDSLSPVKLPRLSKSIQIVPPPPVSLRYSQSLQNLPCSGKFDFDNVVMAAPPDFHDSVNSDAIEIAPPPPEYVVNTRGRSTSGRKSNKNDLVLPPPGYEGGQEEEHDERPSQPRCTAKELQQSTQNGRRAMENELVPPPIEYVEEENRNNEQSRRSTKNGNLVDRNTHNAVEYCEPPEPPEYDDSDHGQASILRRSGKKLQHSKQSVQKSNKEQIIAPSYENNEDYDSDEEPIYNEEYGKEESQNKNVTRRKSDKDEMASHTLECIEGPDPNWNSSCNKQNRNHQNASKSKENDKLANRSSKSQKLSNPRQNAVGTEKSVALSNRGEECTEKSSDVMESLRVNTPTPPIDQNSDDVPSRNPSPSRTLLSDDVPSTSRAALEFLQRSQNMSKSRPPDESSADVVFKKPLAPAPRAKSKKGKSEVDKLKLAKMPVEAEELNTTGIRRSKRGQVPLQMSWCHTMDPSKFNFMSGFIEPRSKNSKTKKGNLSKAKKASATKPKPTVEKNLPDNRGPLCSSTPRISEKLPGAIPHSESLGLSTLTWEETEVQAEAEKVPKKRGRPKKAVGGVQTDTEAEPEPEPEPMISSVAPLTSDQEEPDVPDEQAPYTEAALGPVVFSTPLRDEQEEASTKLMQWLRGVGDAPPSASMSDENASVSSANELIFCQVDGIDYAFYNTKEKAMLGYMRFKPYQKRSMKQAKVHPLKLLVQFGEFNVETLAVGEEKEVHSVLRVGDMIEIDRGTRYSIQNAIDKVSVLMCIRS
Consider B1, for which the binding result in experiment [1] was “binds”; in experiment [2] it was “no binding”; in experiment [3] it was “binds”; in experiment [4], “binds”.
